Experimental findings from PMC5270677 are described below.

The chains behind the UniProt entries cited, without tags or fusion partners. Residues count along the entry.
UniProt P07237, residues 18-508: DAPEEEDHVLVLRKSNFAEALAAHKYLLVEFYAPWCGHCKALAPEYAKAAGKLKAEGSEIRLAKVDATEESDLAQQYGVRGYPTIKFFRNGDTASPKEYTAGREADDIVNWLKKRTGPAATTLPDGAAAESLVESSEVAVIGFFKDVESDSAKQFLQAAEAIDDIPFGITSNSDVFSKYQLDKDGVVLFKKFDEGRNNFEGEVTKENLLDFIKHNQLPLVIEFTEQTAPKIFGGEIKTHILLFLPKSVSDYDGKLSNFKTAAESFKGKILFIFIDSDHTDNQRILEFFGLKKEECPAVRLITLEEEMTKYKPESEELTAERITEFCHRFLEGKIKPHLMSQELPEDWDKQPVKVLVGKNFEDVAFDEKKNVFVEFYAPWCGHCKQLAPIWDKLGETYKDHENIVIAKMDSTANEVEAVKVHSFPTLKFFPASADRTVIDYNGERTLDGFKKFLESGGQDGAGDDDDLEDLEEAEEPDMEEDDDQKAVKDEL

This assay addresses protein disulfide isomerase (PDI), recombinant (UniProt P07237). In words: pull-down; only the target purified.

Results are given in words; binding and its absence hold for the method and conditions named. In cells and extracts the contact can be indirect.

As to “PrP^Sc from brain homogenate of sporadic CJD (sCJD) patients (from UniProt P04156 23-230)”, the binding result was “no binding”.
